Assay results reported in publication PMC1762433.
No constants are given. Whether binding was seen depends on the method and setting. In cells and extracts the contact can be indirect. Binding calls can cover weak binding; strength is not graded here.

Sequences of proteins named here, by UniProt entry; tags and fusion partners are left off. A change or cut given only in a name is not applied to a line headed by its entry.
UniProt Q8N3Y1: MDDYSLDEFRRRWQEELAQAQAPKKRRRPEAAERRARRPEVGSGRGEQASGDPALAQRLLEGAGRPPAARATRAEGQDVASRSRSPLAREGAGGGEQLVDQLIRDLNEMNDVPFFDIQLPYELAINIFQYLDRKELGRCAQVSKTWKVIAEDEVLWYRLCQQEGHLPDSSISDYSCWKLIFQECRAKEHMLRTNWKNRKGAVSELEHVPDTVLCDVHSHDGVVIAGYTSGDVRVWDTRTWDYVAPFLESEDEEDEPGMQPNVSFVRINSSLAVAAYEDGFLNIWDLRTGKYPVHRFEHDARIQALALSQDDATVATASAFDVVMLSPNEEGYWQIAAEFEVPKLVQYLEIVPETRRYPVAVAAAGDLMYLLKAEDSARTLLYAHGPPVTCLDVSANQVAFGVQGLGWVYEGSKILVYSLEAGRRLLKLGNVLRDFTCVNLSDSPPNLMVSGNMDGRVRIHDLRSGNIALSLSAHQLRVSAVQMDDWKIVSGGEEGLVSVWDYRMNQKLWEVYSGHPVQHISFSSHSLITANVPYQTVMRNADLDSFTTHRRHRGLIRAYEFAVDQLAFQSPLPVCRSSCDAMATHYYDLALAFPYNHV
UniProt Q14999: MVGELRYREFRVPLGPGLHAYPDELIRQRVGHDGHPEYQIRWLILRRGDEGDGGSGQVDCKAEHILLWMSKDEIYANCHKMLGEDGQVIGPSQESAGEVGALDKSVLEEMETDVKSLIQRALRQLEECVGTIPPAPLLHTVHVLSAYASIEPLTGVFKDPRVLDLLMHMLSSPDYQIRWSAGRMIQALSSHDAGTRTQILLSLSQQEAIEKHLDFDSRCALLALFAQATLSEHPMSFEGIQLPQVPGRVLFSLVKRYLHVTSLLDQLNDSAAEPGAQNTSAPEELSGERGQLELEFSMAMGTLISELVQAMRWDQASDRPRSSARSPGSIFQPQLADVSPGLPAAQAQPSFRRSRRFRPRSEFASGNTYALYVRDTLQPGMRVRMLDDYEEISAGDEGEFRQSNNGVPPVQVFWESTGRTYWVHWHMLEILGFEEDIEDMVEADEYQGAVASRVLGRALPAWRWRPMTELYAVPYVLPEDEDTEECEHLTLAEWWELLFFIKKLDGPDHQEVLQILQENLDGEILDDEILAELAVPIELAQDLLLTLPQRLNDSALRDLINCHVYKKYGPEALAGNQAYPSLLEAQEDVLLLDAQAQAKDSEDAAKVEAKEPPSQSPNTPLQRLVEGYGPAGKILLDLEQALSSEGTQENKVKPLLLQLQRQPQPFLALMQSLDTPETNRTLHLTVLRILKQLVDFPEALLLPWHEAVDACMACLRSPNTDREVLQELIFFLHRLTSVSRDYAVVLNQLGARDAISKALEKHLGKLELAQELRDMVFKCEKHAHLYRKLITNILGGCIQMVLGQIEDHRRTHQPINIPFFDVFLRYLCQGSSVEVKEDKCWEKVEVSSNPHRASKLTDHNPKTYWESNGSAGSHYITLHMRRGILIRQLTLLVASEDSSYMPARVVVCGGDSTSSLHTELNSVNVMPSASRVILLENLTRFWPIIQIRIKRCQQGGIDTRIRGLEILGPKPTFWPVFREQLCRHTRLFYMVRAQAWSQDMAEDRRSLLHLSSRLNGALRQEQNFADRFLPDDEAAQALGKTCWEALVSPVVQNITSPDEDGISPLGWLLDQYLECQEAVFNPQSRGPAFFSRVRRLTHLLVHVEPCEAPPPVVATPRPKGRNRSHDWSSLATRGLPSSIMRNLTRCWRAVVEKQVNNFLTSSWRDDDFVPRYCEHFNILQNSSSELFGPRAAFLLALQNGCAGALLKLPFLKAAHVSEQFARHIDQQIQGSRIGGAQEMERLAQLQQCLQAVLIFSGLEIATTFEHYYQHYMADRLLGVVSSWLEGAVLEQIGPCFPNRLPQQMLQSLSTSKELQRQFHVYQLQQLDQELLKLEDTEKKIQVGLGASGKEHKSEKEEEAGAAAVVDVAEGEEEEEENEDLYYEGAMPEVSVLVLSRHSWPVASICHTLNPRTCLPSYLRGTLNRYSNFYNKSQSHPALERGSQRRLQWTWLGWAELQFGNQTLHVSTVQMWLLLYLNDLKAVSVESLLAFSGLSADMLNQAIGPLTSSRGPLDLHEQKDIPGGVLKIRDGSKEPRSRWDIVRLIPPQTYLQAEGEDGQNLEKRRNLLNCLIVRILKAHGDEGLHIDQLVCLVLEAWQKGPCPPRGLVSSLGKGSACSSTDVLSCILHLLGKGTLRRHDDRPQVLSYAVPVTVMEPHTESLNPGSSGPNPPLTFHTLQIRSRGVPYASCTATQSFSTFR
UniProt P63208: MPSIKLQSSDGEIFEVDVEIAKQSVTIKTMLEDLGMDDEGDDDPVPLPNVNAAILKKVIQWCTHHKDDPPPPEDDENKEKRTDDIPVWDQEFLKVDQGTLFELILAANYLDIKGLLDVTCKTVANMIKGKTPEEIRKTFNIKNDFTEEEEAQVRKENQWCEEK
UniProt P24385: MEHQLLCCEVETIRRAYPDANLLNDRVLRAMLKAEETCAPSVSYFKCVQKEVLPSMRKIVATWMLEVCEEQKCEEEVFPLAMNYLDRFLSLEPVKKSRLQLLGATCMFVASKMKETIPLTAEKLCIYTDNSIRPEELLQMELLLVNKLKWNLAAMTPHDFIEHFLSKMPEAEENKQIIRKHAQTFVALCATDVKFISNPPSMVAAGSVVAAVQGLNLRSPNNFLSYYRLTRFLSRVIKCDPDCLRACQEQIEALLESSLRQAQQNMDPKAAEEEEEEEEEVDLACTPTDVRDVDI

biological target: Flag-tagged ΔF FBXW8 (F-box deletion mutant) (human) (UniProt Q8N3Y1); experiment: co-IP; T98G cells transfected with empty, Flag-tagged WT FBXW8 or ΔF FBXW8 plasmid; precipitated with Flag antibody; blotted for cyclin D1, SKP1, CUL1, CUL7, RBX1 and Flag

Row | Substance | binding
1 | Cullin 7 (CUL7), endogenous (from UniProt Q14999 1-1698) | binds weakly
2 | S-phase Kinase-associated Protein 1 (SKP1), endogenous (from UniProt P63208 1-163) | binds weakly
3 | cyclin D1 (endogenous) (from UniProt P24385 1-295) | binds
